Some of the results follow.

Amino acid sequences for entries named in this document (tags omitted).
UniProt Q0JBA9, entry or part of it: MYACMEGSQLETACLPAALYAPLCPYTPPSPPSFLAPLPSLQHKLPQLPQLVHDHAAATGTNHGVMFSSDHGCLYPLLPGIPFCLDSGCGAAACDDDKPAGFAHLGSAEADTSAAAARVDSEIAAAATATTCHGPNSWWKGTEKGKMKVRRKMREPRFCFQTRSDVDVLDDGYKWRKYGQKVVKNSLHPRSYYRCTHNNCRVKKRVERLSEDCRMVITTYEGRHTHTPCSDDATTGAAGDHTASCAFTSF

This is an account of results in PMC7819943, “Rice protein-binding microarrays: a tool to detect cis-acting elements near promoter regions in rice”.

The target in this assay is OsWRKY34 (Oryza sativa, UniProt Q0JBA9 1-250). Description: protein-binding microarray (RPBM); PBS, 2% BSA, 51.3 ng/ul salmon testes DNA, 50 uM zinc acetate, 200 nM TF, 25 C, 1 h; high values mean tight binding. The following applies: protein: recombinant; tags: N-terminal polyhistidine and DsRed monomer fusion (pET32a); label: CyDye5-dUTP incorporated in the synthesized complementary strand; 3' TTTTT single-stranded linker to array surface; dsDNA, one strand shown. In outline:
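The binding signal for each feature is its fluorescence intensity in arbitrary units. An Axon 4000B scanner was used to read a custom Agilent array that had been made double-stranded with Cy5-dUTP primer extension, blocked with 2% BSA, incubated at 25 °C for 1 h with 200 nM protein in PBS, 2% BSA, salmon testes DNA and 50 µM zinc acetate, and washed. The protein was an N-terminal polyhistidine–DsRed transcription factor fusion from E. coli BL21-CodonPlus, purified on Ni–NTA.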
As to “GGGGTCACACAAGAGGGAGGGCAAATGTAGGTAAGATTGACGGAGTCACCTAGTGCAG”, the binding signal is 11400 fluorescence intensity (a.u.).
To “CGATCGCTTAGATTCCGCATCGTCCTTTTCACTATTTTTTCGGAGTCACCTAGTGCAG” belongs 11400 fluorescence intensity (a.u.).
Under “GCTTGCACAGCACAACGCCCATCATCCTGGATCCCCGTCACGGAGTCACCTAGTGCAG” stands 8390 fluorescence intensity (a.u.).
With “CAACCTCATTGGCTGCACCTCGTCCTCATCCGCCGCAATCCGGAGTCACCTAGTGCAG”, the binding signal was 10900 fluorescence intensity (a.u.).
Under “CTTAAGTATATATATTTTTGTAGTGTCGTTTCACAAAACCCGGAGTCACCTAGTGCAG” stands 8650 fluorescence intensity (a.u.); under “GCTTGTTAGATCGCCTCGCTATGCTCCAATCTGCGCATCACGGAGTCACCTAGTGCAG”, 8580 fluorescence intensity (a.u.); under “TCTTGTAATAGGATTCTTTGTTTGGTTTGCTTGTATTCTTCGGAGTCACCTAGTGCAG”, 10400 fluorescence intensity (a.u.).
To “GATTTTTTCGCATTGCCCACATTCTTATAGATGTTAATGACGGAGTCACCTAGTGCAG” belongs 10500 fluorescence intensity (a.u.); to “AAGGTATTGGCTCTTACTACTTGGGTTCGAGATTTTCTAGCGGAGTCACCTAGTGCAG”, 9120 fluorescence intensity (a.u.); to “CTTCTGCGTTCTACTTGATGGATCGGTTAGTCTCGTTAATCGGAGTCACCTAGTGCAG”, 8270 fluorescence intensity (a.u.).
On to “ATTGATTTTGTTATTTTTACGCACAGACTCAAATACATTGCGGAGTCACCTAGTGCAG”, for which the binding signal was 8460 fluorescence intensity (a.u.).
Under “GCGCCATAATATCATCGGTCGCGAGCTGAGCTCTCCCTCTCGGAGTCACCTAGTGCAG” stands 8430 fluorescence intensity (a.u.); under “GGGTTGTTGTAGAATCTTGTGGATCCACTTGGCAGGGTCTCGGAGTCACCTAGTGCAG”, 10000 fluorescence intensity (a.u.); under “TCACCATATGAATGCATGCCGTGATCCAACTATCCTTCATCGGAGTCACCTAGTGCAG”, 9590 fluorescence intensity (a.u.).
Under “GGGCTGTTGTGTGTGTGTTTTGCGACGTGCCGTGCTGGGCCGGAGTCACCTAGTGCAG” stands 8290 fluorescence intensity (a.u.).
Under “AGCGGAACCCTAGCTAGCTTCCTTGTGGTTTTGAGGGTTTCGGAGTCACCTAGTGCAG” stands 10500 fluorescence intensity (a.u.); under “TTTCCGCAGCAACGCACCGGGTTTCATCTAGTTTATTATTCGGAGTCACCTAGTGCAG”, 8450 fluorescence intensity (a.u.); under “GTGCGCGACCGCCTCGGCCCGACCTCGCCTGCCTCTTCGTCGGAGTCACCTAGTGCAG”, 9400 fluorescence intensity (a.u.).
For “GAGGGTTTATTGTAGTCGTGGTTTTCACTTAGTTTTCTTTCGGAGTCACCTAGTGCAG”, the binding signal was 11400 fluorescence intensity (a.u.).
To “GTGGGGTTCATGGAGTGGTTGAACATTAGCAAACATCTTCCGGAGTCACCTAGTGCAG” belongs 8260 fluorescence intensity (a.u.).
Under “AATACTACTCCTGATGAGTTTACATCCGTCGGTCTTTTTTCGGAGTCACCTAGTGCAG” stands 9740 fluorescence intensity (a.u.); under “GGCTGTCCCACTTTAGGTTATTTGTCGTCCGGTCTGAAATCGGAGTCACCTAGTGCAG”, 10100 fluorescence intensity (a.u.); under “TGCACACCCGGCCTACCAGCCTCGCTCCCTTCCTCGCCGTCGGAGTCACCTAGTGCAG”, 8510 fluorescence intensity (a.u.).
To “AAATTGTACTACGAAAAAGTCAAACTACTTATAATATGAACGGAGTCACCTAGTGCAG” belongs 9800 fluorescence intensity (a.u.); to “TCTCAGCCGTCGCCCCTCACACACGCACACACACTCTCTCCGGAGTCACCTAGTGCAG”, 9280 fluorescence intensity (a.u.); to “GAAGACCCGATTGTTCCTTTCCTTCCAGATTGTCCACGCTCGGAGTCACCTAGTGCAG”, 8310 fluorescence intensity (a.u.).
For the sequence “TCACCACCACCATCACAACCCAATCCCAATCCAAACCACCCGGAGTCACCTAGTGCAG”, the binding signal is 8530 fluorescence intensity (a.u.).
With “TATTTTTGACCAGAGGGAGGGTTTTTTTTTTTTTGAGAGACGGAGTCACCTAGTGCAG”, the binding signal was 10300 fluorescence intensity (a.u.).
Under “TTAAGGGGTATTTCTGTCTTTTCACGTTGTATTCATCTCACGGAGTCACCTAGTGCAG” stands 10800 fluorescence intensity (a.u.); under “GTAGATTTTACTCTGTTTTGTTGGTTGGATGGTCCAGTAACGGAGTCACCTAGTGCAG”, 8140 fluorescence intensity (a.u.); under “TTGTCTTTTCTCTGCCTTGATCCAGTCCATTTCTTACAAACGGAGTCACCTAGTGCAG”, 12200 fluorescence intensity (a.u.).
To “GCCACGTTCTCTTCCCGCTCCGACGAATTCTGCTCTCCATCGGAGTCACCTAGTGCAG” belongs 15100 fluorescence intensity (a.u.); to “GTTTAAGCTCTTCATCGGCGTTTTTTATGTTTGAAGTCATCGGAGTCACCTAGTGCAG”, 12500 fluorescence intensity (a.u.).
Under “TGTTAGAGCACAACACATACACCATCACTTTTACTCTCTTCGGAGTCACCTAGTGCAG” stands 9800 fluorescence intensity (a.u.).
As to “GATCCCTCTATCCAGCATCTGAGGGGAATATTCCCCTCCGCGGAGTCACCTAGTGCAG”, the binding signal was 8270 fluorescence intensity (a.u.).
Under “CGTGGCCCATCTCCAATTCTCCAGTTGCTTCCTTTTCGTTCGGAGTCACCTAGTGCAG” stands 12600 fluorescence intensity (a.u.).
Under “AGAATGTTATACGGCGCTCGATCTATTATTCCGCACTCTACGGAGTCACCTAGTGCAG” stands 8130 fluorescence intensity (a.u.); under “ACATCTTATTTCCCTGGGTGGGGAGATTCTAGTTAAAATTCGGAGTCACCTAGTGCAG”, 19000 fluorescence intensity (a.u.).
Regarding “TAGCTAGCAGCACATTTTTGCATGCACCTGTAGCATATTACGGAGTCACCTAGTGCAG”, the binding signal is 8570 fluorescence intensity (a.u.).
Under “CCGCGCCGCCGGTCACATCCAACCCAACCCAAACTGCCAGCGGAGTCACCTAGTGCAG” stands 9390 fluorescence intensity (a.u.); under “CTGACTCGTTCTTGCTCTTGTTGCAATCTTCCAAACAGTACGGAGTCACCTAGTGCAG”, 8770 fluorescence intensity (a.u.).
Under “ATGTGATGACATGATGACACGATCTGAACCTACGATTTCCCGGAGTCACCTAGTGCAG” stands 8240 fluorescence intensity (a.u.).
